From the supplement of paper PMC9254222
The full ranking holds about 1,100 compounds; the median of “Wnt reporter firefly/Renilla luciferase ratio relative to plate median” is about 1.1, and the highest 2% start at about 1.6. The entries are a selection whose mix differs from that of the whole data set.

Tested on: HEK293T (UBE3A T485A transfected, BAR Wnt reporter)
Assay: Wnt reporter firefly/Renilla luciferase ratio relative to plate median (fold (linear ratio)); higher = more Wnt/beta-catenin reporter activation
Settings: 24 h
Method in brief: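 HEK293T cells were seeded at 4500 cells/well in white 384-well plates and grown in DMEM with 10% FBS at 37°C and 5% CO2. The cells were transfected using Fugene 6 with a BAR firefly luciferase Wnt reporter, TK-Renilla and an expression plasmid, and four hours later robots added the chemicals at 0.01–100 uM for 24 h before a Dual-Glo luciferase readout. Wnt activity was taken as the firefly/Renilla ratio and cell health as raw Renilla, each median-centred per plate. Values are averages of four biological replicates.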

SMILES | Wnt reporter firefly/Renilla luciferase ratio (concentration: 0.1 uM) | Wnt reporter firefly/Renilla luciferase ratio (concentration: 1 uM) | Wnt reporter firefly/Renilla luciferase ratio (concentration: 10 uM) | Wnt reporter firefly/Renilla luciferase ratio (concentration: 100 uM) | Wnt reporter firefly/Renilla luciferase ratio (concentration: 0.01 uM)
CCCCCCCCN(C)C [N,N-Dimethyloctylamine] | 1.11 | 1.08 | 0.836 | 1.23 | –
CCCCCCCCCCCCCCCO [1-Pentadecanol] | 1.05 | 0.896 | 1.04 | 0.942 | –
O=[N+]([O-])c1ccc([O-])cc1.[Na+] [Sodium 4-nitrophenolate] | 1.02 | 0.944 | 1.34 | 0.608 | –
CC(C(C)N1CC(=O)NC(=O)C1)N1CC(=O)NC(=O)C1 (stereo unspecified) | 1.88 | – | – | – | –
CCOC(=O)COc1ccc2c(c1)CC(NCC(O)c1cccc(Cl)c1)CC2.Cl (stereo unspecified) | 1.06 | 1.18 | 1.15 | 1.19 | –
Oc1ccc(C(c2ccc(O)cc2)C(Cl)(Cl)Cl)cc1 [2,2-Bis(4-hydroxyphenyl)-1,1,1-trichloroethane] | 1.3 | 0.957 | 0.541 | – | 1.02
CCOCCOCCOCCO [2-[2-(2-Ethoxyethoxy)ethoxy]ethanol] | – | – | – | 1.62 | –
CC(O)CN(CCN(CC(C)O)CC(C)O)CC(C)O (stereo unspecified) [N,N,N',N'-Tetrakis(2-Hydroxypropyl)ethylenediamine] | 1.11 | 0.855 | 1.03 | 1.08 | –
Nc1nc(=O)c2nc(CNc3ccc(C(=O)N[C@@H](CCC(=O)O)C(=O)O)cc3)cnc2[nH]1 [Folic acid] | 1.38 | 1.01 | 0.97 | 1.26 | –
CC(C)(O)c1ccc(CNC(=O)c2cccnc2Oc2ccc3nonc3c2)cc1 | 1.11 | 0.899 | 0.958 | 0.232 | –
[Cl-].[K+] | 0.807 | 0.821 | 0.758 | 1.39 | 0.834
CCCCCCCC(=O)O [Octanoic acid] | 0.998 | 1.11 | 1.2 | 1.11 | –
O=C1CCCCC1 [Cyclohexanone] | 1.22 | 1.2 | 1.33 | 1.08 | –
O=C(O)c1cccc(Oc2ccccc2)c1 [3-Phenoxybenzoic acid] | 1.23 | 0.897 | 0.92 | 0.89 | –
Cl.O=C(c1ccc(OCCN2CCCCC2)cc1)c1c(-c2ccc(O)cc2)sc2cc(O)ccc12 [Raloxifene hydrochloride] | 0.859 | 0.911 | 0.518 | – | –
O=C(O)C1(C(=O)Nc2ccc(Cl)cc2Cl)CC1 [Cyclanilide] | 1.6 | 1.16 | 1.53 | 0.874 | 1.46
OC(CCl)CCl [1,3-Dichloro-2-propanol] | 1.29 | 1.29 | 1.36 | 1.58 | –
CCCCOCCO [2-Butoxyethanol] | 1.04 | 0.988 | 0.907 | 1.06 | –
CC(=O)CC(c1ccccc1)c1c(O)c2ccccc2oc1=O (stereo unspecified) [Warfarin] | 0.905 | 1.11 | 1.07 | 0.631 | –

Record cards, as listed above. Order of values: Wnt reporter firefly/Renilla luciferase ratio (concentration: 0.1 uM)	Wnt reporter firefly/Renilla luciferase ratio (concentration: 1 uM)	Wnt reporter firefly/Renilla luciferase ratio (concentration: 10 uM)	Wnt reporter firefly/Renilla luciferase ratio (concentration: 100 uM)	Wnt reporter firefly/Renilla luciferase ratio (concentration: 0.01 uM)
CCOCCOCCOCCO [2-[2-(2-Ethoxyethoxy)ethoxy]ethanol] is entered as –	–	–	1.62	–
CCCCOCCO [2-Butoxyethanol] is entered as 1.04	0.988	0.907	1.06	–
